According to US8476230 (dated 2013):

Key:
peptide made by a vendor = details: conjugation step, reverse phase HPLC
peptide synthesis = details: conjugation step, reverse phase HPLC

Arg12 Mutated DA Exendin-4(Lys27)-PEG-Immunoglobulin Fc Conjugate
final HPLC purity (peptide made by a vendor): 99.2%

Ser12 Mutated DA Exendin-4(Lys27)-PEG-Immunoglobulin Fc Conjugate
final HPLC purity (peptide synthesis): 92.5%
